Source: patent US8168596B2, “Use of cycloartane compounds for treating arthritis” (NuLiv Holding Inc., priority 2008, dated 2012)
At least one compound was matched to its structure with a doubt left.

Test system: MMP1
Assay: Western blotting, kinase inhibitors on MMP1 protein expression induced by PMA in SW1353 cells
Format: cell-based, human
Conditions: UO126 10 μM, SP600125 25 μM, 24 h, then PMA 100 ng/mL 24 h
Method: Western blotting analysis was carried out based on the following procedure. Cells were washed and lysed in 0.2 mL of lysis buffer (1% NP-40, 50 mM Tris-HCl, pH 7.4, 180 mM NaCl, 1 mM EDTA, 1 mM PMSF, 1 mM NaF, 10 mM Na3VO4) for 30 min at 4° C. After centrifugation at 17500 g for 15 min, the supernatants of cell lysate were collected. Protein concentrations of the samples were measured using the bicinchoninic acid (BCA) protein assay kit according to the manufacturer's protocol (Pierce, Rockford, Ill., USA). Equal amounts of protein samples of concentrated conditioned medium (100 μg) or cell lysate supernatants (50 μg) were mixed with an appropriate volume of 4×SDS sampling buffer and separated on a 8% SDS-PAGE gel. The protein bands separated on the SDS-PAGE gel were blotted onto a polyvinylidene fluoride (PVDF) membrane. The blotted PVDF membrane was washed twice and blocked in freshly prepared Tris-buffered saline (TBS) containing 0.1% Tween-20 and 7% skim milk (TBST) for 2 hours at room temperature. The PVDF membrane was then incubated with a primary antibody against MMP1 protein (Santa Cruz Biotechnology, Santa Cruz, Calif.) for 18 hours at 4° C. Horseradish peroxidase-conjugated anti-goat antibody was used as the secondary antibody. Signals were visualized by an enhanced chemiluminescence kit (Clonetech, Palo Alto, Calif., USA) followed by exposure to X-ray films. […]

SMILES: Oc1c2ccccc2c2c3c(cccc13)N=N2 [SP600125]
- protein expression by western blotting (effect of kinase inhibitors on MMP1 protein expression induced by PMA): significantly reduced
